The source of these data is article PMC12040169 (PLOS Biology, 2025).

The structures appear in SMILES notation. The list shows a part of the results.

This experiment deals with T1, CTL2-GFP (C. trachomatis L2/434/Bu, GFP-expressing).
T1 construct: L2/434/Bu, GFP-expressing
Also on record: species or system HeLa; Intracellular C. trachomatis growth in HeLa cells, bulk GFP fluorescence relative to DMSO. To be noted: bulk GFP, single well; 28.5 h, 10 µM; inhibitor.
As to `COCCNc1nc(-c2ccc(C(C)=O)s2)ccc1C(=O)N(C)CCN(C)C` [CBK105914], the “% of control remaining” value amounted to 89.73%.

In the case of `COc1c(O)ccc(/C=N/NC(=O)COc2c(Br)cc(Br)cc2Br)c1[N+](=O)[O-]` [CBK261957], the “% of control remaining” value came out at 94.9878%.

As to `Cn1nc(NC(=O)CC(C)(C)CC(=O)O)c2c(F)cccc21` [CBK057122], the “% of control remaining” value is 119.236%.

For `CCc1ccc(CCC(=O)N2CCN(S(=O)(=O)c3sc(C(=O)O)c(C)c3C(=O)O)CC2)cc1` [CBK297138], the “% of control remaining” value worked out at 113.797%.

Take `Nc1ncc(-c2cncnc2)nc1NC1CC1` [CBK063869]: the “% of control remaining” value came out at 172.943%.

As to `Cc1ccc(C)c(NC(=S)NCCc2ccc(S(N)(=O)=O)cc2)c1` [CBK264879], the “% of control remaining” value is recorded as 101.732%.

Regarding `COC(=O)c1ccc(OCc2nnn[nH]2)cc1` [CBK269544], the “% of control remaining” value was 141.243%.

With `CC1Cc2cc(C(O)CN3CCCCC3)ccc2N1C(=O)C1CC1` (stereo not drawn) [CBK283144], the “% of control remaining” value amounted to 125.57%.

For `O=C(Cc1ccc(Cl)cc1Cl)Nc1ccc2ncccc2c1` [CBK159787], the “% of control remaining” value is recorded as 111.495%.

For `Cc1ccccc1OCC(=O)Nc1ccc(CSc2ccccc2)cc1` [CBK264651], the “% of control remaining” value is 102.222%.

In the case of `CC(=O)N1CCC[C@@H](N)[C@@H]1c1ccccc1F` [CBK281562], the “% of control remaining” value is reported as 107.62%.

As to `CCOC(=O)c1cccc(NS(=O)(=O)c2c(C)noc2C)c1` [CBK034339], the “% of control remaining” value was determined as 130.513%.

As for `CCN1C(=O)c2ccccc2C(=O)[C@@]2(C)CN(C)C[C@@H]12` [CBK283478], the “% of control remaining” value amounted to 150.732%.

Turning to `Cc1ccc(Cl)cc1-n1cc(-c2ccc(F)cc2F)nn1` [CBK112995], the “% of control remaining” value was found to be 123.988%.

With `CCn1c(C)nc2cc(NC(=O)Cn3cccn3)ccc21` [CBK281828], the “% of control remaining” value is listed as 138.164%.

As for `CN1CCN(c2nccnc2-c2cccc(F)c2)CC1` [CBK036876], the “% of control remaining” value came out at 109.461%.

With `COc1nccnc1OC1CCN(CC2CCCCC2)CC1` [CBK084263], the “% of control remaining” value was found to be 103.538%.

`CN1CCN(C(=O)c2cccc(-c3ncc(OCC(F)(F)F)nc3N)c2)CC1` [CBK145196]: the “% of control remaining” value came to 102.557%.

Take `Cc1ccc(/C=C/C(=O)N2CCC3(CC2)CC(=O)c2cc(Cl)ccc2O3)cc1` [CBK156439]: the “% of control remaining” value was determined as 125.373%.

On to `COc1ccccc1N1CCn2c1nc1c2c(=O)n(CCN2CCOCC2)c(=O)n1C` [CBK269265], for which the “% of control remaining” value came out at 169.935%.

In the case of `O=C1CC[C@H](NC(=O)c2cccs2)C(c2cccnc2)N1` (stereo partly drawn) [CBK282901], the “% of control remaining” value worked out at 118.539%.

In the case of `Cc1nc(N)sc1-c1nnc(SC/C=C/c2ccccc2)n1C` [CBK269383], the “% of control remaining” value is 154.711%.

As for `Cc1nnc(CCNC(=O)c2cccc(C#N)c2)n1C` [CBK306017], the “% of control remaining” value came to 103.934%.

As to `S=c1n(CN2CCC(c3ccccc3)CC2)nc(Cc2ccccc2)n1-c1ccccc1` [CBK265037], the “% of control remaining” value came out at 113.733%.

For `CN1CCC2CN(CCCC(c3ccc(F)cc3)c3ccc(F)cc3)CCN2C1=O` (stereo not drawn) [CBK024865C], the “% of control remaining” value stood at 98.0555%.

For `Cn1cc(C(=O)OCc2cccc(S(=O)(=O)N3CCOCC3)c2)cn1` [CBK305721], the “% of control remaining” value came to 109.397%.

As to `CC(C)C1OC(NCc2ccc(Cl)cc2)=NC1=O` (stereo not drawn) [CBK070352], the “% of control remaining” value is listed as 161.381%.

As to `Cc1nc(N)nc(NCCC2CCCOC2)c1Cl` (stereo not drawn) [CBK307353], the “% of control remaining” value was 114.075%.

For the compound `CSc1ccccc1NC(=O)Cn1c(-c2nonc2N)nc2ccccc21` [CBK266919], the “% of control remaining” value is on record as 152.51%.

`CC(=O)N1CCc2c(sc(NC(=O)c3ccc(C)cc3)c2C#N)C1` [CBK304411]: the “% of control remaining” value is listed as 87.7997%.

Regarding `O=[N+]([O-])c1cccc(C(Nc2cccnc2)c2cc(Cl)c3cccnc3c2O)c1` (stereo not drawn) [CBK268629], the “% of control remaining” value was 36.9767%.

Consider `CCCCC(=O)N1CCC2(CC1)CC(=O)c1ccc(OCc3ccccc3)c(C)c1O2` [CBK156493], for which the “% of control remaining” value was 73.0984%.

On to `CCNC(=O)N1CC2(CCN(Cc3csc(C)n3)CC2)c2ccccc21` [CBK126712], for which the “% of control remaining” value came out at 96.8439%.

`Cc1ccccc1Nc1nc(N)nc(CN2CCCC(C(F)(F)F)C2)n1` (stereo not drawn) [CBK305073]: the “% of control remaining” value is reported as 40.8429%.

On to `CCCCOc1ccc(-c2nnn(C(C)C(=O)OCC)n2)cc1` (stereo not drawn) [CBK068558], for which the “% of control remaining” value was found to be 115.219%.

As for `O=C(Nc1sc2c(c1C(=O)NCc1cccnc1)CCCC2)c1sc2ccccc2c1Cl` [CBK266334], the “% of control remaining” value was determined as 123.224%.

On to `N/C(CC(=O)Nc1cc(Cl)cc(Cl)c1)=N\O` [CBK228614], for which the “% of control remaining” value worked out at 107.81%.

For the compound `O=C(C[S+]([O-])c1ccc(C(F)(F)F)cc1[N+](=O)[O-])Oc1cccc2cccnc12` (stereo not drawn) [CBK266716], the “% of control remaining” value came to 121.745%.

For the compound `c1ccc2c(CCN3CCC[C@@H]3CN3CCCC3)c[nH]c2c1` [CBK149104], the “% of control remaining” value was 119.36%.

For the compound `COc1cc(CNc2nccnc2-c2cccnc2)cc(OC)c1` [CBK038061], the “% of control remaining” value is recorded as 89.1487%.

`O=P(O)(CNCc1ccccc1)CNCc1ccccc1` [CBK261604C]: the “% of control remaining” value worked out at 91.6986%.

Turning to `Cc1nccn1CCNC(=O)Cn1cnc2ccccc21` [CBK281983], the “% of control remaining” value came out at 138.895%.

Turning to `CCN1CC2(CCN(Cc3ccc4nsnc4c3)CC2)c2ccccc21` [CBK136994], the “% of control remaining” value is 142.311%.

Consider `CCOc1ccc(/N=N\c2ccc(O)c(/C=N\Nc3ccc([N+](=O)[O-])cc3)c2)cc1` [CBK262111], for which the “% of control remaining” value stood at 112.309%.

In the case of `CCCCSc1nc(N)cc(N2CCCC(N3CCCC3=O)C2)n1` (stereo not drawn) [CBK306995], the “% of control remaining” value was 127.93%.

Take `COc1ncc(-c2cncc(N3CCN(CCO)CC3)n2)c(OC)n1` [CBK065146]: the “% of control remaining” value is listed as 188.975%.

In the case of `CCNC(=O)C1CCN(Cc2nc(-c3cc(OC)ccc3F)oc2C)C1` (stereo not drawn) [CBK307040], the “% of control remaining” value was determined as 115.252%.

On to `O=C(O)C1C2CCC(CC2)C1C(=O)N1CCN(Cc2ccccc2Cl)CC1` (stereo not drawn) [CBK270336], for which the “% of control remaining” value is 133.096%.

For the compound `c1ccc(SCc2csc(-c3ccc4c(c3)OCO4)n2)nc1` [CBK270294], the “% of control remaining” value was found to be 158.518%.

As to `CCn1c(=O)n(CC(=O)N2CCC(C)CC2)c2cccnc21` [CBK283895], the “% of control remaining” value is listed as 187.015%.

With `COCCNc1nc2c([nH]1)c(=O)n(C)c(=O)n2C` [CBK288104], the “% of control remaining” value came to 120.605%.
